Among the data in article PMC5112536 are binding values, retold here.

The target of assay [1] is T1, FLAG-tagged full length OASIS (human) (UniProt Q96BA8).
T1 sequence: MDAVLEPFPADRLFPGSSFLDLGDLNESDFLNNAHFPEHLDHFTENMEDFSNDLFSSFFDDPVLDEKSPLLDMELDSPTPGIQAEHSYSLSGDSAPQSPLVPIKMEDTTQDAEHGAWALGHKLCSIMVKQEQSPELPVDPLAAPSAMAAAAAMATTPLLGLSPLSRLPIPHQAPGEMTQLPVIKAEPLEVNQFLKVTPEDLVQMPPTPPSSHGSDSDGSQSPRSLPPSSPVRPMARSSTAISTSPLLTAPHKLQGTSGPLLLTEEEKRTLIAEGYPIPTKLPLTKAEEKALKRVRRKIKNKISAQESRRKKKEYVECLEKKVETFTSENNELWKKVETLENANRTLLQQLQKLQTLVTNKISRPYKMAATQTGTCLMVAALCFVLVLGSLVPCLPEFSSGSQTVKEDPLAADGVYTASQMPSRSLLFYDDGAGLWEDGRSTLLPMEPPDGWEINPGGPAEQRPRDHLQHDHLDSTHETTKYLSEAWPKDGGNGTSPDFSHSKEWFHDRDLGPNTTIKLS
Kind of assay: co-IP; HEK293T cells co-transfected with the expression vectors; lysates incubated with anti-FLAG or anti-Myc antibodies overnight, protein G-agarose at 4 °C for 3 hours, washed with TNE buffer (10 mM Tris, 1 mM EDTA, 150 mM NaCl); western blot with anti-FLAG or anti-Myc. A general note: A western blot detects proteins with antibodies after separation by electrophoresis.

Assay [2] deals with T2, Myc-tagged full-length AIbZIP (human) (UniProt Q8TEY5).
T2 sequence: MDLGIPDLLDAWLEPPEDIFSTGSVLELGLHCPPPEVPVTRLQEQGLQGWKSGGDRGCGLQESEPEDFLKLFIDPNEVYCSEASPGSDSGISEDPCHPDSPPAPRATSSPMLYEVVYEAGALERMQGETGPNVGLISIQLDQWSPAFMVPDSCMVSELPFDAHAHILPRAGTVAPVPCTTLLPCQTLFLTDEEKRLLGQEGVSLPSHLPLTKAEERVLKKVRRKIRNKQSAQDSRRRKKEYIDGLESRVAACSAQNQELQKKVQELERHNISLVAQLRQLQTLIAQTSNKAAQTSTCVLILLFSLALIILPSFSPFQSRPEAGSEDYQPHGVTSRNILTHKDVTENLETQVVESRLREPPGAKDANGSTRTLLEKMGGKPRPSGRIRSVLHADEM
Described as above.

No constants are given. Whether binding was seen depends on the method and setting. Binding seen in cells or lysates may run through a third protein. Some entries that bind do so weakly or less than the wild type. Sequences can lack the tags named with a protein.

B1: Myc-tagged full-length AIbZIP (protein, UniProt Q8TEY5 1-395)
chain: MDLGIPDLLDAWLEPPEDIFSTGSVLELGLHCPPPEVPVTRLQEQGLQGWKSGGDRGCGLQESEPEDFLKLFIDPNEVYCSEASPGSDSGISEDPCHPDSPPAPRATSSPMLYEVVYEAGALERMQGETGPNVGLISIQLDQWSPAFMVPDSCMVSELPFDAHAHILPRAGTVAPVPCTTLLPCQTLFLTDEEKRLLGQEGVSLPSHLPLTKAEERVLKKVRRKIRNKQSAQDSRRRKKEYIDGLESRVAACSAQNQELQKKVQELERHNISLVAQLRQLQTLIAQTSNKAAQTSTCVLILLFSLALIILPSFSPFQSRPEAGSEDYQPHGVTSRNILTHKDVTENLETQVVESRLREPPGAKDANGSTRTLLEKMGGKPRPSGRIRSVLHADEM
Take B1: the binding result in assay [1] was “binds”.

B2: FLAG-tagged full length OASIS (protein, UniProt Q96BA8 1-519)
chain: MDAVLEPFPADRLFPGSSFLDLGDLNESDFLNNAHFPEHLDHFTENMEDFSNDLFSSFFDDPVLDEKSPLLDMELDSPTPGIQAEHSYSLSGDSAPQSPLVPIKMEDTTQDAEHGAWALGHKLCSIMVKQEQSPELPVDPLAAPSAMAAAAAMATTPLLGLSPLSRLPIPHQAPGEMTQLPVIKAEPLEVNQFLKVTPEDLVQMPPTPPSSHGSDSDGSQSPRSLPPSSPVRPMARSSTAISTSPLLTAPHKLQGTSGPLLLTEEEKRTLIAEGYPIPTKLPLTKAEEKALKRVRRKIKNKISAQESRRKKKEYVECLEKKVETFTSENNELWKKVETLENANRTLLQQLQKLQTLVTNKISRPYKMAATQTGTCLMVAALCFVLVLGSLVPCLPEFSSGSQTVKEDPLAADGVYTASQMPSRSLLFYDDGAGLWEDGRSTLLPMEPPDGWEINPGGPAEQRPRDHLQHDHLDSTHETTKYLSEAWPKDGGNGTSPDFSHSKEWFHDRDLGPNTTIKLS
Regarding B2, the binding entry in assay [2] is “binds”.
